Literature values in patent US12435046B2, “Alkynyl quinazoline compounds” (Black Diamond Therapeutics, Inc., priority 2019, dated 2025).
At least one compound was matched to its structure with a doubt left.

System: GBM tumors
Settings: cited from earlier work

Cn1nnc2c(C(N)=O)ncn2c1=O [temozolomide]
median OS (mOS) (GBM patients receiving radiation and temozolomide alone (standard of care)): 14.6 months | median PFS (mPFS) (GBM patients receiving radiation and temozolomide alone): 6.9 months
